The supplement of paper PMC7666118
The list shows a part of the results.

target: VKORC1 (UniProt Q9BQB6); test: dose-dependent thermal stabilisation call (2D-TPP, DLPTP, 10% FDR) (binary (1 = stabilised)); higher = stabilised by the compound; settings: system: HL-60 intact cells; concentration range 0.04-10 µM
Protocol: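 2D thermal proteome profiling in intact HL-60 cells treated with BRD-3811 (0, 0.04, 0.29, 2, 10 uM) for 90 min at 37 C, then heated 3 min at one of 12 temperatures (42-63.9 C). Soluble protein was quantified by TMT10 MS. The value is the DLPTP call of the paper: dose-dependent thermal stabilisation over all temperatures at 10% FDR (F-test of a dose-response against a flat model); one experiment, one call per tested protein.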

| SMILES | dose-dependent thermal stabilisation call |
| --- | --- |
| COc1ccc(Cn2ccc3cc(C)c(C(=O)NO)cc32)cc1 | inactive: 0 |
